Measurements published in PMC11920766.
No constants are given. Whether binding was seen depends on the method and setting. Binding seen in cells or lysates may run through a third protein. Some results given as binding are weak or reduced against the parent protein; the word gives no strength.

Protein sequences, listed by entry. Tags and fused reporters are not part of them. Lines headed by an entry give the natural chain unless they say otherwise; changes in a name come on top. Residues count along the entry.
UniProt Q14974: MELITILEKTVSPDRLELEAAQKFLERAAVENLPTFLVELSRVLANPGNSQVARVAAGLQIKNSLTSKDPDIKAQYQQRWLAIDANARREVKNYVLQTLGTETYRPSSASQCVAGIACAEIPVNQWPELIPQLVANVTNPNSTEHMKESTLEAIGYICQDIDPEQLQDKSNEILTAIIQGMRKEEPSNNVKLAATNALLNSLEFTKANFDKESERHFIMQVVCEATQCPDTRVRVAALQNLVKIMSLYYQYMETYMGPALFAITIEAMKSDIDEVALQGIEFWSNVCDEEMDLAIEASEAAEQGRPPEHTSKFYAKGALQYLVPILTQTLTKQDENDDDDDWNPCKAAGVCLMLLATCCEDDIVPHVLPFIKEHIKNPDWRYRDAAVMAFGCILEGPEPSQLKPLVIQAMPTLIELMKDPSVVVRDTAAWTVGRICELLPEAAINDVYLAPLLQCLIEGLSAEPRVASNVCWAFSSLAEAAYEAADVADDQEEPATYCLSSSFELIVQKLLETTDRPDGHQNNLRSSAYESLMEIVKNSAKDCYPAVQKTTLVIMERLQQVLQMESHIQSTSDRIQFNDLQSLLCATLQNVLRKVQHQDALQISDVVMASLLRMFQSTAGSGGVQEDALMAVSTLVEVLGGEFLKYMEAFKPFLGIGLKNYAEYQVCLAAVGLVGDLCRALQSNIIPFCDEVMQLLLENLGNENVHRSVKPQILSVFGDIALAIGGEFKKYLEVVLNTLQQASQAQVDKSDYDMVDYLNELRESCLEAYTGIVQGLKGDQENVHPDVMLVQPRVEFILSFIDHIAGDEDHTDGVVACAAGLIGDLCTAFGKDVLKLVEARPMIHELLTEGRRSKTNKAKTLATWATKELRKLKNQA
UniProt Q9NZQ7, residues 19-290: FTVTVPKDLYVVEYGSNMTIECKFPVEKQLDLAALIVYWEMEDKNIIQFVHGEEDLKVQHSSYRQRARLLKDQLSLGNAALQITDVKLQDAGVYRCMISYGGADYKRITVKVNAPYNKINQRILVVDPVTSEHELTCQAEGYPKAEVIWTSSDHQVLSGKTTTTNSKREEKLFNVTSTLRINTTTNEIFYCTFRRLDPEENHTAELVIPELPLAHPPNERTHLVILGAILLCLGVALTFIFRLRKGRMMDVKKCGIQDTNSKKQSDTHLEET

Molecular target: KPNB1 (human (endogenous in PC9R and A549R)) (UniProt Q14974)
Assay: co-IP; Pierce Classic Magnetic IP/Co-IP kit; PC9R and A549R cell lysates incubated overnight at 4°C with anti-KPNB1, anti-PD-L1 or anti-IgG (negative control), protein A/G magnetic beads; KPNB1 and PD-L1 detected by western blot

Question: For PD-L1 (from UniProt Q9NZQ7 19-290), which binding is on record?
Answer: Its binding is “binds”.
